The values below come from PMC5364535.

Results are given in words; binding and its absence hold for the method and conditions named. Some results given as binding are weak or reduced against the parent protein; the word gives no strength.

In experiment [1] the target is T1, EnvZ (E. coli), P0AEJ4.
T1 chain: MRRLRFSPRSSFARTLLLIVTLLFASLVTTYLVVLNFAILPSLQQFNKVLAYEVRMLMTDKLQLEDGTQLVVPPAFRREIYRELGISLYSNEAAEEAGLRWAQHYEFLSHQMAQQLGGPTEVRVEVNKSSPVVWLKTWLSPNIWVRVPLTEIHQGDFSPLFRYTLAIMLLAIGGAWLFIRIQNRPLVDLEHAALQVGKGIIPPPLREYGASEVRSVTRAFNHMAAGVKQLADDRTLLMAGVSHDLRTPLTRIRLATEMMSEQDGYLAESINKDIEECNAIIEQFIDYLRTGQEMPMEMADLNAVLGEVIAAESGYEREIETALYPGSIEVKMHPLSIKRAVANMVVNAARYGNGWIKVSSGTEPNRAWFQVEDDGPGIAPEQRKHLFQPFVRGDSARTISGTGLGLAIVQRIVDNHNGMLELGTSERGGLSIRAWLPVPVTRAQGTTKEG
The experiment can be described thus: Protein-interactome Footprinting (PiF); in E. coli cells; EnvZ and OmpR fusions in one cell; high osmolality M9 media (100 mM NaCl) or low osmolality M9 media (8.5 mM NaCl), changed in blocks of 40 min. Particulars: remark: other sources report otherwise.

The target of experiment [2] is T2, CheZ (E. coli) (UniProt P0A9H9).
T2 sequence: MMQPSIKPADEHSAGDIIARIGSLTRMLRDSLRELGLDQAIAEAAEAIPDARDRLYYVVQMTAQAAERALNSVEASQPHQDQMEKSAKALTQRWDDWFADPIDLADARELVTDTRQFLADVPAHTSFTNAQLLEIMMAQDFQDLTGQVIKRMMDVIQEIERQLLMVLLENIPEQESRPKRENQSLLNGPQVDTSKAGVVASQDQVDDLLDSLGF
The experiment can be described thus: Protein-interactome Footprinting (PiF); in E. coli JM109 cells co-transformed with X-pPIDATR1 and Y-pPIDKTR2, 10 uM IPTG, M9 His DO medium, 37 °C; formaldehyde cross-linking, DNase I digestion, three BR sequences read at once by beacon-assisted detection (MBAD signal); intensity = MBAD signal/Iref of GFP, threshold 1.

Experiment [3] addresses CheY (E. coli) (UniProt P0AE67). The experiment is described as above.
The target of experiment [4] is CheA (E. coli) (UniProt P07363). Described as above.
For experiment [5], the target named is T3, CheB (E. coli) (UniProt P07330).
T3 sequence: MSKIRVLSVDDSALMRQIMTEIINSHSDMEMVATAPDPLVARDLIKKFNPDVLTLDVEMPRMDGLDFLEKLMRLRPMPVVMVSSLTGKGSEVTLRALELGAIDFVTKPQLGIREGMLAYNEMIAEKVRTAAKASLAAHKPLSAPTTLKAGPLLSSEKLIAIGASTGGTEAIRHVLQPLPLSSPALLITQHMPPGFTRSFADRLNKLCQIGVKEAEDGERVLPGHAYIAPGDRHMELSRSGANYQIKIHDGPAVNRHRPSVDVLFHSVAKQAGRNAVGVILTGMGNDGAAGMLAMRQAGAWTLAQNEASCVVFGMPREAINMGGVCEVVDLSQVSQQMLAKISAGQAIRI
Described as above.

For experiment [6], the target named is T4, OmpR (E. coli) (UniProt P0AA16).
T4 sequence: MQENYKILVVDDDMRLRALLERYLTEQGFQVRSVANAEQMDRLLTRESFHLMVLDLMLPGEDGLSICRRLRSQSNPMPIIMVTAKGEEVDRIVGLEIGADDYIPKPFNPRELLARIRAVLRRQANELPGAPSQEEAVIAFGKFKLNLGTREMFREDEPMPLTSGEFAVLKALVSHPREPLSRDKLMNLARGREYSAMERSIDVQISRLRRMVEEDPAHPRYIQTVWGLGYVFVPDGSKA
The experiment can be described thus: Protein-interactome Footprinting (PiF); in E. coli cells; EnvZ and OmpR fusions in one cell; high osmolality M9 media (100 mM NaCl) or low osmolality M9 media (8.5 mM NaCl), changed in blocks of 40 min.

Experiment [7] deals with T3, CheB (E. coli). The experiment can be described thus: PdF assay; in E. coli cells; target proteins fused to CI(N,wt) or CI(N,mut); dimerisation protects a core DNA sequence from DNase I; copy number read by qPCR (also by BAD with Beacon-I, Fig. 4A); normalized PdF signal. On the technique in general: Real-time PCR tracks product formation cycle by cycle.

B1: EnvZ, P0AEJ4 1-450 (protein)
chain: T1 chain
As for B1, the binding entry in experiment [1] is on record as “binds”.

B2: CheY (protein, UniProt P0AE67 1-129)
chain: MADKELKFLVVDDFSTMRRIVRNLLKELGFNNVEEAEDGVDALNKLQAGGYGFVISDWNMPNMDGLELLKTIRADGAMSALPVLMVTAEAKKENIIAAAQAGASGYVVKPFTAATLEEKLNKIFEKLGM
Regarding B2, the binding result in experiment [2] and in experiment [3] was “binds” throughout.

B3: CheA (protein, UniProt P07363 1-654)
chain: MSMDISDFYQTFFDEADELLADMEQHLLVLQPEAPDAEQLNAIFRAAHSIKGGAGTFGFSVLQETTHLMENLLDEARRGEMQLNTDIINLFLETKDIMQEQLDAYKQSQEPDAASFDYICQALRQLALEAKGETPSAVTRLSVVAKSEPQDEQSRSQSPRRIILSRLKAGEVDLLEEELGHLTTLTDVVKGADSLSAILPGDIAEDDITAVLCFVIEADQITFETVEVSPKISTPPVLKLAAEQAPTGRVEREKTTRSNESTSIRVAVEKVDQLINLVGELVITQSMLAQRSSELDPVNHGDLITSMGQLQRNARDLQESVMSIRMMPMEYVFSRYPRLVRDLAGKLGKQVELTLVGSSTELDKSLIERIIDPLTHLVRNSLDHGIELPEKRLAAGKNSVGNLILSAEHQGGNICIEVTDDGAGLNRERILAKAASQGLTVSENMSDDEVAMLIFAPGFSTAEQVTDVSGRGVGMDVVKRNIQKMGGHVEIQSKQGTGTTIRILLPLTLAILDGMSVRVADEVFILPLNAVMESLQPREADLHPLAGGERVLEVRGEYLPIVELWKVFNVAGAKTEATQGIVVILQSGGRRYALLVDQLIGQHQVVVKNLESNYRKVPGISAATILGDGSVALIVDVSALQAINREQRMANTAA
For the molecule B3, the binding result in experiment [4], in experiment [5] and in experiment [2] was “binds” each time.

B4: OmpR (protein, UniProt P0AA16 1-239)
chain: T4 sequence
For B4, the binding entry in experiment [6] was “binds”.

B5: CheB (protein, UniProt P07330 1-349)
chain: T3 sequence
Consider B5, for which, in experiment [7], the binding entry is “no binding”.

B6: CheZ (protein, UniProt P0A9H9 1-214)
chain: T2 sequence
As to B6, in experiment [2], the binding entry was “binds”.
